# Measured values published in PubChem BioAssay AID1645886 (National Center for Advancing Translational Sciences (NCATS), 2021).
# The chains behind the UniProt entries cited, without tags or fusion partners. Where a name states a change or a piece, a line headed by the entry shows the natural chain unless it says otherwise.
# UniProt Q8WZA2: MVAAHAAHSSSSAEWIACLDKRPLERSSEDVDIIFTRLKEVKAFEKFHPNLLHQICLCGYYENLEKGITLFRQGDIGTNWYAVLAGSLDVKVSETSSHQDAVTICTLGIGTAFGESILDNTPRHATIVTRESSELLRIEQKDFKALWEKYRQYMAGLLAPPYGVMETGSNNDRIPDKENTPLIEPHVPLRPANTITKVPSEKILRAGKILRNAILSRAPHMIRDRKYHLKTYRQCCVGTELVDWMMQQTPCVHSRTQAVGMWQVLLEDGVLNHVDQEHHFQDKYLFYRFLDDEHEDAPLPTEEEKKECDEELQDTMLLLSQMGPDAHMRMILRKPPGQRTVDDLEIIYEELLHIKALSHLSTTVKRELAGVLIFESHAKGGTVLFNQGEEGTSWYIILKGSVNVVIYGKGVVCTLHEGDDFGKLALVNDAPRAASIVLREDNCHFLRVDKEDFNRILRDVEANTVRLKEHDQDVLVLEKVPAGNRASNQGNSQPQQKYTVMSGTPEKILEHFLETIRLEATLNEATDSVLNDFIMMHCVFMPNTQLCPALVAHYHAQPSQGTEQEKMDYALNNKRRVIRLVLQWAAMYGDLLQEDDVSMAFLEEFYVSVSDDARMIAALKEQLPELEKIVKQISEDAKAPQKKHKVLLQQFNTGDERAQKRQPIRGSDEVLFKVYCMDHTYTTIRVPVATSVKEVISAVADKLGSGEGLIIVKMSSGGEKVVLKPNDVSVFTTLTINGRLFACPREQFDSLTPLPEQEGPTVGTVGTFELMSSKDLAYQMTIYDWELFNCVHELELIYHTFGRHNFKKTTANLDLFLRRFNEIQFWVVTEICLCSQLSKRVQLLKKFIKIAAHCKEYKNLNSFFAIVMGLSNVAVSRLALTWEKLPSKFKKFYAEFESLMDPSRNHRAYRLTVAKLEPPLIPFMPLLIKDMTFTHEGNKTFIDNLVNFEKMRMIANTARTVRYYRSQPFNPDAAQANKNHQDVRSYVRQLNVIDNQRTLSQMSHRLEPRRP
# Most of the hits are listed elsewhere, so they are rarer here than in the full data. Results filed as inconclusive are left out. Calls of active or inactive are those of the source. Calls come from the whole dose curve; as a rule, active = well fitted inhibition curve with a large enough effect; inconclusive = small, poorly fitted or top-dose-only effect; inactive = no such curve, though single readings can be large or run the other way.
# Target: Rap guanine nucleotide exchange factor 4 (Homo sapiens) (UniProt Q8WZA2)
# Assay: Validation qHTS for antagonist of cAMP-regulated guanine nucleotide exchange factor 4 (EPAC2);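 note: 100% = activation by cAMP agonist control; nearly all actives have a fitted effect of over 40% in size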
# Conditions: EPAC2 Rap1B BODIPY-GDP exchange, fluorescence; at 112 µM (top of the series)
# Source text: Principle Investigator: Xiaodong Cheng Ph.D. The University of Texas Medical Branch, […], TX MLPCN Grant: NS066510 In multi-cellular eukaryotic organisms, the effects of cAMP are transduced by two ubiquitously-expressed intracellular cAMP receptors, the classic protein kinase A/cAMP-dependent protein kinase (PKA/cAPK) and the more recently discovered exchange protein directly activated by cAMP/cAMP-regulated guanine nucleotide exchange factor (EPAC/cAMP-GEF). Both PKA and EPAC are ubiquitously expressed in all tissues, and an increase in intracellular cAMP levels will lead to the activation of both PKA and EPAC. […] This qHTS will be used to screen the Molecular Libraries Small Molecule Repository (MLSMR) as a concentration-titration series using the NCGC unique quantitative screening (qHTS) platform to find activators for EPAC1. […] Activators are identified by monitoring the change in fluorescence signal as the exchanged free BODIPY-GDP has a reduced fluorescence compared to Rap1-bound BODIPY-GDP. […]
# Briefly, three uL of reagents (100 nM EPAC2, 250 nM RAP1B-BODIPY-GDP, 50 uM GDP) were dispensed into a 1536-well Greiner black solid-bottom medium binding assay plate. […] The assay plates were read at 5 minute intervals for 30 minutes in the ViewLux plate reader using 480nm excitation and 540nm emission filters. […]
row,SMILES,"activity, negative = inhibition"
1,CC(C)(C)c1ccc(O)cc1,inactive: -25.1%
